Results of single-concentration screens

Data taken from ChEMBL document CHEMBL3988442, “University of Dundee, Small-Polar-MMV Screening Library” (2021).

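Whole-parasite assay of Trypanosoma brucei over 72 hours; the read-out is not stated. Compounds at 30 µM. Higher reads as stronger inhibition (inferred: compounds with an IC50 in retests scored well above the rest). Values scatter widely below zero; nearly all retest evidence comes from the higher of the two concentrations used. Of about 64,000 compounds tested this way, about 940 (1.5%) reached 50% or more in at least one test.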

The filed quantity is “Percent Effect” (%). The controls that fix the scale are not given in the record; negative values are as filed. Compounds were drawn at random from those tested, without regard to their results.

O=C(c1cccnc1)N1CCCC(c2ncncc2-c2ccncc2)C1 (stereo not given) gave -32.02%. Cc1ccc(C)c(C(O)Cn2cc(Cl)c(=O)[nH]c2=O)c1 (stereo not given) read -33.6%. CCOCc1ccccc1NC(=O)NC1CCN(c2ccccc2)C1 (stereo not given) read 12.17%. With COc1ncc(NCc2cc(C#N)cs2)cc1C(N)=O the screen gave -41.02%. COCC(C)NCc1nc(-c2ccc(C)cc2)c(-c2ccccn2)[nH]1 (stereo not given) gave 72.12%.

Cc1cc(CNC(=O)c2ccc(C(C)N3CCCCC3)o2)[nH]n1 (stereo not given) gave -3.423%. CC(C)C1C(=O)NCCN1C(=O)CCCc1nc(C(C)(C)C)no1 (stereo not given) gave -54.87%. For Cc1c(NC(=O)CN(C)S(C)(=O)=O)cccc1OC1CCCC1 the result was -55.36%. O=C(N[C@@H]1CN(Cc2ccc3[nH]ccc3c2)C[C@H]1O)c1cscn1 read -14.35%. Result for Cc1noc(C)c1CC(=O)N1CCC(c2ccn3nccc3n2)CC1 was -1.754%.

O=C(C1CC1)N1CC[C@H](c2nnc(Cc3c[nH]c4ccccc34)o2)C1 gave -14.84%. Result for Cc1nc(CNCc2c(C)nn(C)c2N2CCOCC2)cs1 was -15.48%. With O=C(O)C(F)(F)F.O=C(O)C(F)(F)F.c1ccc(CN2CCC3(CC2)CCN(c2ccccn2)C3)nc1 the screen gave -35.44%. O=C(c1cnc(O)cn1)N(Cc1ccsc1)CC1CCCO1 (stereo not given) gave -12.37%. Result for Cc1cc(C)c2[nH]c(C(=O)NCCN3CCNC3=O)c(C)c2c1 was -98.44%.

Cc1cccc(CN2CCC3(CCCN(CC(=O)N(C)C)C3)C2)n1.O=C(O)C(F)(F)F (stereo not given) gave -8.514%. For CN(CC(F)F)C(=O)c1cn(-c2ccc(Br)cc2)cn1 the result was -9.175%. CNC(=O)C1CN(C)CCN(CCCOc2ccccc2F)C1 (stereo not given) gave -15.71%. Result for Cn1cc(C(=O)CC2CCCN2C(=O)c2cncc3ccccc23)cn1 (stereo not given) was 1.892%. CC(CCn1cccn1)NCc1n[nH]c2c1CCCCC2 (stereo not given) gave -55.18%.

For CCCNC(=O)CCNC(=O)c1sc2ccc(F)cc2c1C the result was -45.41%. Result for Cc1cc2[nH]c(=O)c(=O)[nH]c2cc1S(=O)(=O)NC1CCC(C)CC1 (stereo not given) was -0.676%. With CCn1ccc(NC(=O)CN2C(=O)CC(C)(C)c3ccccc32)n1 the screen gave -20.62%. O=C(CC1CCCO1)NCc1ccccc1Cn1cncn1 (stereo not given) gave -34.73%. Cc1nc(C)n(C2CCCN(C(=O)c3cn4c(C)cccc4n3)C2)n1 (stereo not given) gave -8.566%.

CCn1cc(N2Cc3nc(N4CCC(O)CC4)ncc3C2=O)cn1 gave -24.87%. For CN1CCCCC1c1ncc2c(n1)CCN(Cc1ccc(F)cc1)C2 (stereo not given) the result was 42.96%. O=C(Nc1cccc(CN2CCOC2=O)c1)N1CCOCC1 gave -7.764%. O=C(O)C(F)(F)F.O=C1COC2(CCN(CC3CC3)CC2)CN1c1ccccc1 gave 10.91%. With Cc1ccoc1-c1nnc(CN2CCn3c(nnc3C(C)C)C2)o1 the screen gave 7.593%.

CC(CO)N(C)C(=O)c1cn(-c2ccc(Br)cc2)cn1 (stereo not given) read -7.4%. CNc1nc(CNC(=O)Nc2cccc(F)c2C)cs1 gave -26.56%. CCC(CNC(=O)c1ccccn1)N1CCc2ccccc2C1 (stereo not given) gave -43.95%. COCC1CCN(c2nc(C(C)(C)C)nc3c2cnn3C)C1 (stereo not given) read 17.93%.

Repeated from the top, 2 entries:

SMILES	percent effect
O=C(c1cccnc1)N1CCCC(c2ncncc2-c2ccncc2)C1 (stereo not given)	-32.02
Cc1ccc(C)c(C(O)Cn2cc(Cl)c(=O)[nH]c2=O)c1 (stereo not given)	-33.6